The experiment in a line: qHTS Assay to Find Inhibitors of Chronic Active B-Cell Receptor Signaling. To be noted: ABC-DLBCL IkBa-CBG/CBR reporter, luminescence ratio (green luciferase fused to IkBa over red control in TMD8 lymphoma cells), 4 h. In a few lines: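 Doxycycline induced both beetle luciferases in TMD8 lymphoma cells; IKK-driven degradation limits the IkappaBalpha-fused green signal, while red luminescence normalises for cell number and nonspecific effects. Compounds tested up to 46 uM, 4 hrs.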

[1] abbreviates: measured here: CBR red luminescence, cell number.
[2] abbreviates: measured here: IkBa-CBG green luminescence.

For 63 compounds, AC50 results are on record in PubChem BioAssay AID493014 (National Center for Advancing Translational Sciences (NCATS), 2011).

In general, AC50 refers to the concentration giving half of the maximal activity seen.

SMILES strings stand for the structures. This is one part of the list. The main result of the screen is listed elsewhere. These columns were measured beside it and carry no call. Compounds called inactive in the main read-out are mostly missing here. Words in brackets tell the shape of the fitted curve; partial curves, single points and poor fits give uncertain potencies.

For the compound `CCOc1cccc(C(=O)NC(=S)Nc2cccc(NC(=O)c3ccccc3Cl)c2)c1`, the concentration at half-maximal activity (AC50) under setting [1] is 4.61 µM [falling, full curve].

In the case of `c1ccc(Cn2nnnc2C(c2cccs2)N2CCc3ccccc3C2)cc1` (stereo unspecified), the AC50 under setting [1] is 29.1 µM [rising, single point].

As to `NC(=O)NC(=O)COC(=O)CNS(=O)(=O)c1ccc(F)c(F)c1F`, the half-maximal activity concentration (AC50) under setting [1] is 0.562 µM [rising, full curve, poor fit].

On to `COc1ccc(Br)cc1CNC(=O)CCSCc1ccc(Cl)cc1`, for which the AC50 under setting [1] was 10 µM [falling, partial curve].

Regarding `COC(=O)c1cnn(-c2nc3c(C)cccc3s2)c1C`, the AC50 under setting [1] is 0.517 µM [rising, partial curve, poor fit].

Take `O=S(Cc1cc(Sc2ccccc2)nc(-c2ccccc2)n1)c1ccccc1` (stereo unspecified): the AC50 under setting [1] is 0.164 µM [rising, partial curve, poor fit].

For `Cc1ccccc1OCC(=O)OCC(=O)c1ccc[nH]1`, the concentration at half-maximal activity (AC50) under setting [1] was 0.206 µM [rising, full curve, poor fit].

`COc1ccc(N2CCN(C(CNC(=O)c3ccco3)c3ccco3)CC2)cc1` (stereo unspecified): the half-maximal activity concentration (AC50) under setting [1] is 29.1 µM [rising, single point].

Regarding `Cc1ccc(C(=O)Nc2cccc(C(F)(F)F)c2)cc1Nc1ccccn1`, the concentration at half-maximal activity (AC50) under setting [1] is 0.891 µM [falling, full curve, poor fit].

In the case of `C=CCC1(O)CC(c2ccco2)NC(c2ccco2)C1CCC` (stereo unspecified), the AC50 under setting [1] was 32.6 µM [falling, partial curve, poor fit].

On to `CCOC(=O)Cc1csc(N/N=C/c2ccc(Cl)cc2)n1`, for which, under setting [1], the AC50 is 11.2 µM [falling, single point].

Regarding `COc1cc(/C=N/NC(=O)c2ccc(N3CCCC3=O)cc2)ccc1O`, under setting [1], the AC50 was 0.501 µM [rising, full curve, poor fit].

In the case of `COc1ccc(CC2(CO)CCN(Cc3ccc(NC(C)=O)cc3)CC2)cc1`, the AC50 under setting [1] is 6.31 µM [rising, single point].

Take `CCN1CCN(CC(=O)c2c[nH]c3ccc(C)cc23)CC1`: the AC50 under setting [1] is 29.1 µM [rising, single point].

With `O=C(NC(=S)Nc1ccc(Cl)cc1)c1ccccc1`, the concentration at half-maximal activity (AC50) runs as follows: under setting [1], 17.8 µM [falling, single point]; under setting [2], 35.5 µM [falling, single point].

`COc1ccc(-c2nc3ccc(C(=O)NCc4ccc(C)cc4)cc3nc2-c2ccc(OC)cc2)cc1`: the AC50 under setting [1] was 0.1 µM [rising, full curve, poor fit].

`CC1(C(=O)NC(=S)N(Cc2ccccc2)c2ccccn2)CC1(Cl)Cl` (stereo unspecified): the AC50 under setting [1] was 2.91 µM [rising, full curve, poor fit].

On to `O=C(Nc1ccc(Cl)cc1C(=O)N1CCOCC1)c1cccc([N+](=O)[O-])c1`, for which the AC50 under setting [1] is 1.16 µM [rising, partial curve, poor fit].

Turning to `CC(C)NC(=O)c1ccc2c(c1)nnn2C`, the AC50 under setting [1] was 4.61 µM [falling, single point].

For `Cc1cccc(NC(=O)CSc2nc(C)nc3c2c(=O)n(C)c(=O)n3C)c1`, under setting [1], the AC50 was 0.00731 µM [rising, full curve, poor fit].

Turning to `CCn1c(SCC(=O)Nc2cc(C)ccc2C)nnc1-c1cnccn1`, the AC50 under setting [1] was 35.5 µM [falling, single point].

Take `CCc1ccc(CN(C)Cc2nc(Cc3ccccc3)no2)nc1`: the half-maximal activity concentration (AC50) under setting [1] is 12.6 µM [rising, single point].

For `Cc1cc(NC(=S)NC(=O)CC(C)C)ccc1Br`, under setting [1], the concentration at half-maximal activity (AC50) is 12.6 µM [rising, partial curve].

Consider `O=C(NNC(=O)C12CC3CC(CC(C3)C1)C2)c1cccc(O)c1`, for which the concentration at half-maximal activity (AC50) under setting [1] is 2.24 µM [falling, full curve].

On to `CCOC(=O)N1CCN(C(=O)c2ccccc2NC(=O)c2ccc(Br)cc2)CC1`, for which the AC50 under setting [1] is 23.1 µM [falling, partial curve].

On to `CC1=C(C(N)=O)C(c2ccccc2)n2nc(-c3cccc(C)c3)nc2N1` (stereo unspecified), for which the concentration at half-maximal activity (AC50) under setting [1] is 14.6 µM [falling, partial curve, poor fit].

With `COCCCNC(=S)Nc1cc2oc3ccccc3c2cc1OC`, under setting [1], the AC50 is 3.98 µM [rising, single point].

Consider `Cc1ccc(CSc2nnc3c(n2)OC2(Nc4ccccc4-3)C(=O)Nc3ccc(F)cc32)cc1` (stereo unspecified), for which the half-maximal activity concentration (AC50) under setting [1] is 15.8 µM [falling, partial curve].

Consider `COc1ccc(CC(CC(=O)O)C(=O)Nc2ccccc2)cc1` (stereo unspecified), for which the half-maximal activity concentration (AC50) under setting [1] was 0.00517 µM [falling, full curve, poor fit].

For the compound `CCCN=C1N(CC)C[C@@H]2[C@@H]3C(=O)N(Cc4ccccc4)C(=O)[C@@H]3[C@](C)(C(=O)OC)N12`, under setting [1], the AC50 is 29.1 µM [rising, single point].

With `Cc1cccc(N2CCN(S(=O)(=O)c3c(C)nc4scc(C)n4c3=O)CC2C)c1` (stereo unspecified), the half-maximal activity concentration (AC50) under setting [1] is 35.5 µM [rising, single point].

On to `CSc1ccc(/C=C/C(=O)OCC(=O)N2CCN(S(=O)(=O)c3ccc(C)cc3C)CC2)cc1`, for which the AC50 under setting [1] was 2.06 µM [rising, single point].

For `CC(=O)c1c(C)[nH]c(C(=O)OCc2ccc(F)cc2Cl)c1C`, under setting [1], the AC50 is 5.62 µM [rising, full curve, poor fit].

As to `COc1ccc(Cl)cc1NC(=O)C[n+]1cccc(C)c1`, the AC50 under setting [1] was 0.794 µM [falling, full curve, poor fit].

For the compound `COc1ccc(COC(=O)c2cc([N+](=O)[O-])ccc2N2CCOCC2)cc1F`, the half-maximal activity concentration (AC50) was 0.366 µM [rising, full curve, poor fit] under setting [1] and 0.206 µM [falling, full curve] under setting [2].

Consider `Nc1nnn(CC(=O)N/N=C/c2cccc(Cl)c2)n1`, for which the half-maximal activity concentration (AC50) under setting [1] was 22.4 µM [rising, single point].

With `CNC(=O)c1cc(C(=O)c2ccc(Cl)cc2)c[nH]1`, the AC50 under setting [1] was 0.631 µM [rising, full curve, poor fit].

As for `CCn1c(SCC(=O)NC2CCCC2)nnc1C(C)NC(=O)c1ccccc1Br` (stereo unspecified), the concentration at half-maximal activity (AC50) under setting [1] was 1.26 µM [rising, full curve, poor fit].

For `COc1ccc2nc(N=Nc3ccc(N(C)C)cc3)sc2c1`, under setting [1], the AC50 is 3.98 µM [falling, full curve, poor fit].

For `O=C(N/N=C/c1ccccc1OC(=O)c1ccc2c(c1)OCO2)c1ccccc1`, under setting [1], the concentration at half-maximal activity (AC50) is 11.6 µM [falling, partial curve].

With `Cc1cc(C(=O)Nc2ccc(OCc3ccccc3)cc2)c(C)o1`, the AC50 under setting [1] is 12.6 µM [falling, single point].

Take `COc1ccc(S(=O)(=O)Nc2ccc3c(c2)C(=O)N([C@H](C)CO)C[C@H](C)[C@@H](CN(C)S(=O)(=O)c2cccs2)O3)cc1`: the concentration at half-maximal activity (AC50) under setting [1] was 1.3 µM [rising, partial curve, poor fit].

For `O=C(C1=C(O)C(=O)N(CC2CCCO2)C1c1ccccc1Cl)c1ccco1` (stereo unspecified), the half-maximal activity concentration (AC50) under setting [1] is 6.31 µM [rising, single point].

Regarding `CCOC(=O)C1CN(S(=O)(=O)c2ccc(C)cc2)CCN1S(=O)(=O)c1ccc(C)cc1` (stereo unspecified), under setting [1], the concentration at half-maximal activity (AC50) was 29.1 µM [rising, single point].

As for `CC(CCc1ccccc1)NC(=O)CN1CCN(c2ccc(O)cc2)CC1` (stereo unspecified), under setting [1], the AC50 is 14.1 µM [rising, single point].

`CCOC(=O)c1cccc(NC(=O)c2cc3ccccc3o2)c1`: under setting [1], the AC50 was 11.2 µM [falling, partial curve, poor fit].

With `O=C(O)CCN1C(=O)/C(=C\c2cccc(OCc3ccccc3)c2)SC1=S`, under setting [1], the half-maximal activity concentration (AC50) is 0.501 µM [falling, full curve, poor fit].

Turning to `COc1ccc(C2NCCc3c2[nH]c2ccccc32)cc1COc1ccc(F)cc1` (stereo unspecified), the concentration at half-maximal activity (AC50) under setting [1] is 29.1 µM [falling, single point].

Turning to `N#C/C(=N\Nc1ccc(Cl)cc1)C(N)=S`, the AC50 is 15.8 µM [falling, partial curve] under setting [1] and 12.6 µM [rising, partial curve, poor fit] under setting [2].

As to `O=C(O)CCCc1ccc2c(c1)CCc1ccccc1-2`, the concentration at half-maximal activity (AC50) under setting [2] is 0.00461 µM [rising, full curve, poor fit].

Turning to `CSc1nc2ccc(S(=O)(=O)NC3CCCCC3)cc2s1`, the concentration at half-maximal activity (AC50) under setting [1] is 6.51 µM [falling, single point].

As to `Cc1cc(NS(=O)(=O)c2ccc(NC(=O)c3oc4ccccc4c3C)cc2)no1`, the AC50 under setting [1] was 1.64 µM [falling, partial curve, poor fit].

On to `O=C(COc1ccccc1Cl)NCCC1=CCCCC1`, for which the concentration at half-maximal activity (AC50) under setting [1] is 2.06 µM [rising, partial curve, poor fit].

For the compound `O=C(CO/N=C/c1c(Cl)cccc1Cl)NNC(=O)c1ccc(Cl)cc1`, the half-maximal activity concentration (AC50) under setting [1] is 15.8 µM [rising, single point].

On to `O=C(Nc1nc2c(F)cccc2s1)C1CC1`, for which the AC50 under setting [1] is 12.6 µM [falling, partial curve].

As to `Fc1c(F)c(-n2nnc3ccccc32)c(F)c(F)c1Cl`, the concentration at half-maximal activity (AC50) under setting [1] is 14.1 µM [rising, single point].

As for `O=C(CSc1nc2[nH]ncc2c(=O)[nH]1)Nc1cccc(Cl)c1`, the AC50 under setting [1] is 7.31 µM [falling, partial curve].

As for `COc1ccc(C(=O)Nc2cccc(C(=O)N/N=C/c3ccc(OC)cc3OC)c2)cc1`, the AC50 under setting [1] was 8.91 µM [falling, partial curve].

For `Cc1cc(=O)[nH]c2nnc(SCc3cccc(F)c3)n12`, the AC50 under setting [1] is 12.6 µM [rising, single point].

On to `Cc1ccc(NC(=O)COc2ccccc2)c(NC(=O)c2ccco2)c1`, for which, under setting [1], the AC50 is 11.2 µM [rising, partial curve, poor fit].

For the compound `CC(C)CN(c1ccccc1)S(=O)(=O)c1nnc(NC(=O)c2ccco2)s1`, the concentration at half-maximal activity (AC50) under setting [1] is 1.26 µM [falling, full curve, poor fit].

Regarding `O=C1c2[nH]nc(-c3ccccc3O)c2C(c2cccc(Cl)c2)N1CC1CCCO1` (stereo unspecified), the concentration at half-maximal activity (AC50) under setting [1] was 29.1 µM [falling, single point].

Regarding `O=C(Nc1ccccc1)Nc1cccc2nsnc12`, the AC50 under setting [1] was 11.2 µM [falling, partial curve].
